In publication PMC12544700, “Identification of a Small Secretoneurin Derivative That Inhibits CaMKIIδ Activity” (Journal of Cellular and Molecular Medicine, 2025):
No constants are given. Whether binding was seen depends on the method and setting. Some binding calls cover weakened binding; strength is not graded here.

Tests used:
[1] = target: recombinant His‐CaMKIIδ‐T287D (species not named for the experiment) (not stated (rat or human protein made)) (UniProt P15791); assay: ELISA; His‐CaMKIIδ‐T287D or CaMKIIδ fragment coated, 1 μg/well in PBS overnight at 4°C; blocked with gelatin or BSA; 5 μL of 1 mM biotinylated peptide, 2 h at 37°C; anti‐biotin‐HRP, read at 450 nm; both purified
[2] = target: recombinant rat His‐CaMKIIδ‐T287D full‐length protein (rat) (UniProt P15791); assay: ELISA; competition: rat CaMKIIδ‐T287D coated; 5 μL (1 mM) biotinylated SN‐db‐short together with 20 μL (1 mM) untagged competitor peptide in the same well; both purified

For TNEIVEEQYTPQSLATLESVFQELGKLTGPNNQ (biotin-ahx on the N-terminus) [biotinylated secretoneurin (SN), SN (1–33)], the binding [1] was “binds”.

In the case of KRPPKLGQIGRSKRVVIEDDR [CN21 peptide], the binding [2] is reported as “binds”.

With KRPPKLGQIGRAKRVVIEDDRIDDVLK [CN27 peptide] the binding [2] was “binds”.

In the case of TNEIVEEQYTPQSLATLESV (biotin-ahx on the N-terminus) [biotinylated SN (1–20)], the binding [1] is reported as “binds”.

In the case of LATLESVFQELGKLTGPNNQ (biotin-ahx on the N-terminus) [biotinylated SN (14–33)], the binding [1] is reported as “binds”.

With EQYTPQSLATLESVFQELGK (biotin-ahx on the N-terminus) [biotinylated SN (7–26)] the binding [1] was “binds”.
